# PubChem BioAssay AID1159590 – NIAID | 2016
# Purpose: 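Which core TLR signalling genes NF-kB activation by Pam3CSK4 depends on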
# Cell system: mouse RAW264.7 macrophage reporter cells expressing GFP-p65 and a Tnf promoter-mCherry
# Knock-down reagent: single siRNA against mouse genes
# Timing: 48 to 72 hours after siRNA transfection, then 40 minutes of ligand
# Treatment: Pam3CSK4 (TLR2/1 agonist) for 40 minutes before fixation; dose not given
# Measured: 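p65 nuclear translocation measured by high-content imaging, shown for each siRNA as a robust z-score averaged across replicates, relative to negative controls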
# Direction: p65 nuclear entry z-score: higher = more p65 moved into nuclei than in negative-control wells
# Rule for the call: In these data the active calls have p65 nuclear entry z-score, replicate mean at about -1.5 or lower, or at about 1.5 or higher
# Calls: active = strong change, up or down; inactive = little change
# The whole screen tested 756 reagents; below is an unselected part. 128 of all reagents (17%) were called active. 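Calls are two-sided: both reduced and increased p65 nuclear entry count as active.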 Entries without a mark were called inactive. The numbers tell different reagents against one gene apart. Not given: the amount of reagent.
gene knocked down,reagent,"p65 nuclear entry z-score, replicate mean"
Ripk3 (receptor-interacting serine-threonine kinase 3),1,-0.27
Ripk3 (receptor-interacting serine-threonine kinase 3),2,0.784
Ripk3 (receptor-interacting serine-threonine kinase 3),3,-0.465
Ripk3 (receptor-interacting serine-threonine kinase 3),4,-0.24
Ripk3 (receptor-interacting serine-threonine kinase 3),5,-0.572
Ripk3 (receptor-interacting serine-threonine kinase 3),6,2.87 (active)
"Ptpn6 (protein tyrosine phosphatase, non-receptor type 6)",1,-0.763
"Ptpn6 (protein tyrosine phosphatase, non-receptor type 6)",2,-0.89
"Ptpn6 (protein tyrosine phosphatase, non-receptor type 6)",3,-3.11 (active)
"Ptpn6 (protein tyrosine phosphatase, non-receptor type 6)",4,0.389
"Ptpn6 (protein tyrosine phosphatase, non-receptor type 6)",5,0.749
"Ptpn6 (protein tyrosine phosphatase, non-receptor type 6)",6,2.96 (active)
Egr2 (early growth response 2),1,-0.948
Egr2 (early growth response 2),2,-0.218
Egr2 (early growth response 2),3,-1.42
Egr2 (early growth response 2),4,2.75 (active)
Egr2 (early growth response 2),5,-0.506
Egr2 (early growth response 2),6,2.04 (active)
Mapk12 (mitogen-activated protein kinase 12),1,-0.221
Mapk12 (mitogen-activated protein kinase 12),2,-0.116
Mapk12 (mitogen-activated protein kinase 12),3,0.571
Mapk12 (mitogen-activated protein kinase 12),4,-0.324
Mapk12 (mitogen-activated protein kinase 12),5,-0.314
Mapk12 (mitogen-activated protein kinase 12),6,-0.431
